Here are results for 3 substances from article PMC6910826.

Results are given in words; binding and its absence hold for the method and conditions named.

The target of the assay is T1, Zasp52 PDZ domain (Drosophila melanogaster) (UniProt A1ZA47).
T1 sequence: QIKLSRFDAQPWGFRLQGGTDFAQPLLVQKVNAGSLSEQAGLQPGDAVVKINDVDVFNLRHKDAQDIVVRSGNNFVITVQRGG
Put plainly: two-hybrid; Matchmaker Y2HGold yeast, double transformants; serial dilutions grown on -Ade/-His/-Leu/-Trp plates; done at least three times.
Zasp66-PK (Drosophila melanogaster): the binding result is “no binding”.

On to Zasp67-PD (Drosophila melanogaster), for which the binding entry was “no binding”.

In the case of Zasp66-PH (Drosophila melanogaster), the binding entry is “no binding”.
